The text below walks through data of PubChem BioAssay (NCATS).

This is one part of the list. Further columns of the screen follow, without active or inactive calls. Compounds called inactive in the main read-out are mostly missing here. Words in brackets tell the shape of the fitted curve; partial curves, single points and poor fits give uncertain potencies.

This assay can be described thus: S16 Schwann cell PMP22 intronic element beta-lactamase assay (AID 624044). The note with it: S16 rat Schwann cells, PMP22 element beta-lactamase FRET, 24 h; measured here: 530 nm viability channel. An outline of the steps: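 Beta-lactamase reporter under a PMP22 intronic regulatory element in stable S16 rat Schwann cells; 24 h compound exposure. 460 nm blue signal normalized between DMSO (0%) and potassium clavulanate, with 535 nm FRET tracking viability; curves classed by r2 and response.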
As to `CC1(C)Oc2ccc(C#N)cc2[C@H](N2CCCC2=O)[C@H]1O`, the AC50 (in general, the concentration at which the activity in the assay is half-maximal) was 1.78 µM [falling, full curve, poor fit]. On to `O=C(O)CCc1nc2ccccc2[nH]1`, for which the AC50 was 1.41 µM [falling, full curve, poor fit]. For the compound `O=C1c2ccccc2C(=O)C1c1ccccc1`, the AC50 was 11.2 µM [falling, single point]. As to `CCN(CC)CCC[C@H](C)Nc1c2ccc(Cl)cc2nc2ccc(OC)cc12`, the AC50 is 15.8 µM [rising, partial curve].
